Reference: article PMC12929097

Key:
Assay in all cases: co-IP; 293T cells co-transfected for 48 h; cleared lysates from a 6-well plate incubated with 1 μg of specific antibody and Protein A/G PLUS-Agarose; eluate and input analysed by Western blotting
[1] = target: chicken IKKϵ (chIKKϵ) (chicken)
[2] = target: chicken TBK1 (chTBK1) (chicken)
[3] = target: chicken interferon regulatory factor 7 (chIRF7) (chicken)

Measured: binding

B1: chicken interferon regulatory factor 10 (chIRF10) (protein, UniProt Q90WI0 1-416)
chain: MAEPGSPMRLKEWLIAQIDSGRYPGLRWENRERTLFRIPWKHAAKQDYRQQQDAALFRAWAVYKGKYHEGTDKADPSTWKTRLRCALNKSTDFQEVPERSQLDISEPYKVYQIVCDGTRDAEKDEKEGRMQPTSSKDPQGHVAEESHRGTAGTCHMPTLPLLTAHPAERGYHVRGIFYGWSPTRSHLLPRAPSFLPAEDVNHSDCWLHIRLYYCDVLVKELTTRTAEGCRIASRTEGPYGPSCMEQIEFPPPRALGGGGWTVAVTEVLERLLPHLERGVLLWVAPEGVFMKRQCQGRVYWNGPLAPHQDWPNKLEREKTYKLLDTQQFLEELRRYLSHGQPAPQYQIHLCFGEEYPTSTGRHLQKLIMAHVEPVFARELFHHAQRLGPALLRGCPQPCAPAAPGRIAHVLQQLCQP
binds: [1] | [2] | [3]

No constants are given. Whether binding was seen depends on the method and setting. Binding seen in cells or lysates may run through a third protein. Binding calls can cover weak binding; strength is not graded here.
